Assay results published in patent publication US20210079102A1 (DRAGONFLY THERAPEUTICS, published 2021).
No constants are given. Whether binding was seen depends on the method and setting. Some results given as binding are weak or reduced against the parent protein; the word gives no strength.

Chains of the proteins cited; added tags and fusions are not shown. Residues count along the entry.
UniProt P20138, residues 18-364: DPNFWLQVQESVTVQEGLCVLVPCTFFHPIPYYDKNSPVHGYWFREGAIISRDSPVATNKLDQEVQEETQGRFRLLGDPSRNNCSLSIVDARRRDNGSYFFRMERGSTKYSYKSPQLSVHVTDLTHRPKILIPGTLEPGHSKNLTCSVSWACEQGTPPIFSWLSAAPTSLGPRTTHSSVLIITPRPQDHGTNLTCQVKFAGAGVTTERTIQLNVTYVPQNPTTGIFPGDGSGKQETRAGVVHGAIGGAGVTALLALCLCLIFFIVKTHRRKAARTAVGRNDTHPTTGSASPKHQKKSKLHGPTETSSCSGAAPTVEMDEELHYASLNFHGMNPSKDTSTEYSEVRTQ

What was measured:
[1] = biological target: T1, CD33 expressed on MV4-11 human AML cells (human, UniProt P20138 18-364); assay: flow cytometry on MV4-11 cells, FOB of MFI
T1 construct: whole, on cells; also called cell-expressed CD33
Method: Human AML cell line MV4-11 expressing CD33 was used to assay the binding of TriNKETs to the tumor associated antigen. TriNKETs and the parental anti-CD33 monoclonal antibody were incubated with the cells, and the binding was detected using fluorophore-conjugated anti-human IgG secondary antibodies. Cells were analyzed by flow cytometry, and fold-over-background (FOB) was calculated using the mean fluorescence intensity (MFI) from TriNKETs and the parental monoclonal anti-CD33 antibody normalized to secondary antibody controls.

[2] = biological target: T1, CD33 expressed on MV4-11 human AML cells; assay: flow cytometry on MV4-11 cells at 20 ug/mL, fold over background

- binding [1]: binds
- binding [2]: binds
B1: CD33-TriNKET-F04 (ADI-29404 and a CD33-binding domain) (bispecific antibody, V domains shown)
VH 1: QVQLQQWGAGLLKPSETLSLTCAVYGGSFSGYYWSWIRQPPGKGLEWIGEIDHSGSTNYNPSLKSRVTISVDTSKNQFSLKLSSVTAADTAVYYCARARGPWSFDPWGQGTLVTVSS
VL 1: DIQMTQSPSTLSASVGDRVTITCRASQSISSWLAWYQQKPGKAPKLLIYKASSLESGVPSRFSGSGSGTEFTLTISSLQPDDFATYYCEQYDSYPTFGGGTKVEIK
VH 2: QVQLVQSGAEVKKPGASVKVSCKASGYTFTDYVVHWVRQAPGQGLEWMGYINPYNDGTKYNEKFKGRVTMTRDTSISTAYMELSRLRSDDTAVYYCARDYRYEVYGMDYWGQGTLVTVSS
VL 2: DIVLTQSPASLAVSPGQRATITCTASSSVNYIHWYQQKPGQPPKLLIYDTSKVASGVPARFSGSGSGTDFTLTINPVEANDTANYYCQQWRSYPLTFGQGTKLEIK
